Results taken from patent US20250277022A1.
Residue numbers refer to the chain shown, from its start. No constants are given. Whether binding was seen depends on the method and setting. Some results given as binding are weak or reduced against the parent protein; the word gives no strength.

B1: TSLP-03 (antibody, V domains shown)
VH: EVQLVESGGGLVQPGGSLRLSCAASGFTFSNYDMTWVRQAPGKGLEWVSSITFASSYIYYADSVKGRFTISRDNAKNSLSLQMNSLRAEDTAVYYCTRGGGAYHGGSLDVWGQGVLVTVSS
VL: DIVMTQTPLSLSVTPGEPASISCRSSQSLLHINGYTYLHWYLQKPGQSPQLLIYLVSHRASGVPDRFSGSGSDTDFTLKISRVEAEDVGVYYCEQTLQTPYSFGGGTKVEIK
B2: TSLP-02 (antibody, V domains shown)
VH: QVQLVQSGAEVKKPGSSVKVSCKASGFTFGSYGINWVRQAPGQGLEWLGVIVPLVGVTIYAEKFQGRVTITADTSTSTAYMELSSLRSEDTAVYYCARGQEYFYWYFDLWGQGTLVTVSS
VL: QSALTQPPSASGSPGQSVTISCSGSSSDIGGYNRVSWYQQHPGKAPKLMIYDVSKRPSGVPDRFSGSKSGNTASLTVSGLQAEDEADYYCSSYAGTDTFILFGGGTKLTVL
B3: TSLP-04 (antibody, V domains shown)
V domain 1: QEQLVQSGDEVKKPGASVKVSCKSSGFTFGSYAISWVRQAPGQGLEWMGMLVPLLGVTNYAEKFQGRVTITADPSTTTTSMELSSLRSEDTAVYYCARGGSNYLYWYFDLWGPGTPITVSS
V domain 2: QSAPIQPRSVSGSPGQSVTISCTGTSSDIGGYNRISWYQQHPGKAPKLMIYDVSKRPSGVSDRFSGSKSGNTASLTISGLQAEDEADYYCSSYAGTDTFVLFGGGTQLTIV
B4: TSLP-0205 (antibody, V domains shown)
VH: B2 VH
VL: B2 VL with S23T, S25T, S26T, D52E, I100A, L101I
B5: TSLP-0206 (antibody, V domains shown)
VH: B2 VH with N35S, G56D
VL: B2 VL with S23T, S25T, S26I, D52E, I100V, L101F
B6: TSLP-0207 (antibody, V domains shown)
VH: B2 VH with N35S
VL: B2 VL with S23T, S25T, D52E, V53F, S54N, T98I, I100V
B7: TSLP-0208 (antibody, V domains shown)
VH: B2 VH with N35S, V52I, V55L, T58P, I59N, Q100A
VL: B2 VL with S23T, S26N, D52E, V53I, I100V
B8: TSLP-0301 (antibody, V domains shown)
VH: B1 VH with H104Y
VL: B1 VL with I32S, G34E, Y101F, S102T
B9: TSLP-0302 (antibody, V domains shown)
VH: B1 VH with D33G, H104Y
VL: B1 VL with I32S, N33Y, H58Y, S102T
B10: TSLP-0401 (antibody, V domains shown)
V domain 1: B3 V domain 1 with L51I, V52I, N59D, S101T
V domain 2: B3 V domain 2 with I35V, D52E, S92A
B11: TSLP-0108 (antibody, V domains shown)
VH: QVQLQESGPGLVKPSETLSLTCAVSGYSISSGYGWSWIRQPPGKGLEWIGYISYYGSTSYNPSLKSRVTISRDTSKNQFSLKLSSVTAADTAVYYCARTNLLYFDSWGQGTLVTVSS
VL: EIVMTQSPATLSLSPGERATLSCRASQSVSNNLAWYQQKPGQAPRLLIYDASSRATGIPARFSGSGSGTDFTLTISSLEPEDFAVYYCQQYSDWPEYSFGQGTKVEIK
B12: TSLP-0109 (antibody, V domains shown)
VH: B11 VH with D105E
VL: B11 VL with S28G, V29I, N31S, N32Y, S53N, R54L, A55Q, T56S, D93N, E96Q
B13: TSLP-0110 (antibody, V domains shown)
VH: B11 VH
VL: B11 VL with N31S, N32Y, A51T, D93N, E96Q
B14: TSLP-0111 (antibody, V domains shown)
VH: B11 VH with I52F
VL: B11 VL with N31S, D93N, E96Q
B15: TSLP-0112 (antibody, V domains shown)
VH: B11 VH with S106Y
VL: B11 VL with N31S, N32Y, E96Q
B16: TSLP-0201 (antibody, V domains shown)
VH: B2 VH with L48M
VL: B2 VL
B17: TSLP-0202 (antibody, V domains shown)
VH: B2 VH with L48M, T74E
VL: B2 VL
B18: TSLP-0203 (antibody, V domains shown)
VH: B2 VH
VL: B2 VL with S23T, S25T, N33D, D52G, G95S, T96G, D97H, I100G
B19: TSLP-0204 (antibody, V domains shown)
VH: B2 VH
VL: B2 VL with S23T, S25T, D52E, S54N, P57S, S91T, I100V

target: cynomolgus monkey TSLP (cynomolgus monkey); experiment: ELISA, antigen coated, IgG1

Binder	binding
B1	binds
B2	binds
B3	binds

target: cynomolgus monkey TSLP (cynomolgus monkey); experiment: ELISA, plate coated with cynomolgus monkey TSLP, test antibodies as human IgG1

Binder	binding
B4	binds
B5	binds
B6	binds
B7	binds
B1	binds
B8	binds
B9	binds
B10	binds
B11	binds
B12	binds
B13	binds
B14	binds
B15	binds
B2	binds
B16	binds
B17	binds
B18	binds
B19	binds
